From paper PMC5923462 come the findings set out here.

The chains behind the UniProt entries cited, without tags or fusion partners. Where a name states a change or a piece, a line headed by the entry shows the natural chain unless it says otherwise.
UniProt Q9F0J8: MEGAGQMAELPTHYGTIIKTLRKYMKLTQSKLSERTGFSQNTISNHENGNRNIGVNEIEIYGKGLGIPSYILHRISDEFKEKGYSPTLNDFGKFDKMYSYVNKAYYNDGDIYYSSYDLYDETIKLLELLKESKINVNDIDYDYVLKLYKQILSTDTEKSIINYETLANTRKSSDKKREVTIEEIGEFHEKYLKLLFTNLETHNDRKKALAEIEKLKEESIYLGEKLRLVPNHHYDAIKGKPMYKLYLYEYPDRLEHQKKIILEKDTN

This series has as its target Stl WT (UniProt Q9F0J8). Put plainly: EMSA. The note with it: 100 ng DNA in 20 uL; recombinant protein; protein details: GST tag removed by thrombin on column (pGEX-4T-1). A general note: Mobility shift assays separate free from complexed probe on a gel.

The exact form of at least one protein or probe is not confirmed.

As for “TCGTAAACATATTCTCACCTCCTCGAACAAATTATCTCACATCGAGATATTTATTTCAACATTAAATATTGCAAATTGAGATATTTTTTTCGATATGATATCATTTGGATGGAAGGAGCTGGTCAAATGGCAGAATTACCAACACATTACGGCACAATTATTAAAACTCTTAGAAAATACATGAAATTAACTCAAAGCAAATTGAGTGAAAGGACAGGATTTAGGATCC (double strand) [Stl-Str 229-mer (Stl-regulated promoter region)]”, the binding result was “binds”.
